Consider six substances from paper PMC9970984.

By UniProt entry, the sequences of proteins in these tests, tags left out.
UniProt Q92830: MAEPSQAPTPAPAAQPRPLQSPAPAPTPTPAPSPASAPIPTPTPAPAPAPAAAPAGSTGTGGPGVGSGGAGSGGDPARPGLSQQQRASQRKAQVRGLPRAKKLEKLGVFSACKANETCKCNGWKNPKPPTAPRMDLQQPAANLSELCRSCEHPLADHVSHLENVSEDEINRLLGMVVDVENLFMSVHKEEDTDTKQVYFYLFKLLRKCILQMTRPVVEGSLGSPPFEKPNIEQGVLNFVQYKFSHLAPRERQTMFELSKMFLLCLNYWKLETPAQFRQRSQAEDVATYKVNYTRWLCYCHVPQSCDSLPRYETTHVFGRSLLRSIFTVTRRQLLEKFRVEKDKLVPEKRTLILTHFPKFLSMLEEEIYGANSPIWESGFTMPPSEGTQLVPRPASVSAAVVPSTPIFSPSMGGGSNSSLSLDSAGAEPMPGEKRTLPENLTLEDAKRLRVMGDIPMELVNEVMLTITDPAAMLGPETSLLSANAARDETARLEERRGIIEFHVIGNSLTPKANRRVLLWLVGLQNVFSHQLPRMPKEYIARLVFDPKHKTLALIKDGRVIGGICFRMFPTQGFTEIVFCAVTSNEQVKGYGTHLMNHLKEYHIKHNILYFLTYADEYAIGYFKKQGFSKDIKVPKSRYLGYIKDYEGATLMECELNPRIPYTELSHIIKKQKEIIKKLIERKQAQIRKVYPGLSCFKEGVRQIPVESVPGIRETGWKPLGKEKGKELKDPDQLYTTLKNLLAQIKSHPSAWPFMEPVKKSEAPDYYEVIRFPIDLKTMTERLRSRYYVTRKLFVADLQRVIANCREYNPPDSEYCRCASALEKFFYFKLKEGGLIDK
UniProt Q8N6T7: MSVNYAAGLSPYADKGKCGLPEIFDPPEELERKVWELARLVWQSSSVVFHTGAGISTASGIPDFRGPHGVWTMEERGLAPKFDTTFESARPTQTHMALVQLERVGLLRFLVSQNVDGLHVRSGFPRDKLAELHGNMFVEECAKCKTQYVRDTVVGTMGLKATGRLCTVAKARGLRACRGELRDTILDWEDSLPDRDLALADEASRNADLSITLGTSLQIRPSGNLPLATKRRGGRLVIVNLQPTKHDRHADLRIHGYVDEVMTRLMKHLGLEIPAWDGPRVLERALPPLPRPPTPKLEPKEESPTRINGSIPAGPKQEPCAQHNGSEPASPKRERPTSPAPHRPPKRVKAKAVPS

Assay [1] concerns the target T1, GST-KAT8 FL (human) (UniProt Q9H7Z6).
T1 sequence: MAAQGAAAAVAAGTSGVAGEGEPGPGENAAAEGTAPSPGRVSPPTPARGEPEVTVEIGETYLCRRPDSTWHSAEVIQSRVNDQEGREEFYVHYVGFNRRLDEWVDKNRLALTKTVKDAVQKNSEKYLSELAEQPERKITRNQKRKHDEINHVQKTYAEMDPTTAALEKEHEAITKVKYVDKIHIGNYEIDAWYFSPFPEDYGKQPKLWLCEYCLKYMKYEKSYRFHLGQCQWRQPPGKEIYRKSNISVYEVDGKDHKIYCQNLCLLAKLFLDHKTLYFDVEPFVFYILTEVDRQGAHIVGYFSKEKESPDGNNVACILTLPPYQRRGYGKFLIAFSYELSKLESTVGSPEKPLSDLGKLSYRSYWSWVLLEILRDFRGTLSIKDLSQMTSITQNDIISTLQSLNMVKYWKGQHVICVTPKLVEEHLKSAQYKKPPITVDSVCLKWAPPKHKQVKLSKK
As to the kind of experiment: pull-down; GST pull-down: His-tagged proteins incubated with GST fusion proteins in TEN buffers for 4 h at 4 °C, beads washed three times; Western blotting with anti-GST or anti-His and Coomassie staining; both purified.

Assay [2] addresses T2, KAT8, endogenous (human (endogenous in HCT116)) (UniProt Q9H7Z6).
T2 sequence: T1 sequence
Briefly: co-IP; semi-exogenous: one tagged partner transfected into HCT116 cells, the other endogenous, lysates.

Assay [3] addresses T3, myc-KAT8 (lysine acetyltransferase 8), wild type (human) (UniProt Q9H7Z6).
T3 sequence: T1 sequence
Briefly: co-IP; exogenous: both partners tagged and co-transfected into HCT116 cells, lysates; with or without PA at 0.2 mM for 24 h.

The target in assay [4] is T2, KAT8, endogenous (human (endogenous in HCT116)). Briefly: co-IP; endogenous proteins of HCT116 lysates; also cells with GCN5 siRNA or non-specific RNA and SIRT6-KO cells.
Assay [5] addresses T3, myc-KAT8 (lysine acetyltransferase 8), wild type (human). Briefly: co-IP; semi-exogenous: one tagged partner transfected into HCT116 cells, the other endogenous, lysates.

No constants are given. Whether binding was seen depends on the method and setting. For part of these data: In cells and extracts the contact can be indirect. Some binding calls cover weakened binding; strength is not graded here. For part of these data: Where a sequence is shown, tags or fusion partners need not be part of it.

His-GCN5 FL (from UniProt Q92830 1-837): the binding result in assay [1] is listed as “binds”.

Turning to “Flag-GCN5 (general control non-repressed protein 5) (from UniProt Q92830 1-837)”, the binding result in assay [2] and in assay [3] was “binds” throughout.

For the substance GFP-SIRT6 (from UniProt Q8N6T7 1-355), the binding result in assay [3] is on record as “binds”.

As to Flag-SIRT6 (from UniProt Q8N6T7 1-355), the binding entry in assay [2] and in assay [3] was “binds” in each case.

Take “GCN5, endogenous (from UniProt Q92830 1-837)”: the binding entry in assay [4] is recorded as “binds”.

Take “SIRT6, endogenous (from UniProt Q8N6T7 1-355)”: the binding result in assay [4] and in assay [5] was “binds” throughout.
